Reference: US5076973A (Arizona Board of Regents, priority 1988, dated 1991)

Assay: general procedure: solution-phase peptide synthesis; diethyl phosphorocyanidate (DEPC)-triethylamine
Settings: for step yield: coupling step; for isolated yield: whole synthesis, overall

Substance | step yield | isolated yield | cyclisation yield (cyclisation step)
N-t-Boc-L-(gln)Thz-(gly)Thz-L-Val-L-Pro-OMe | 93% |  | 
N-t-Boc-L-Leu-L-(gln)Thz-(gly)Thz-L-Val-L-Pro-OMe | 86% | 71% | 
PEPTIDE1{V.P.L.[glnThz].[glyThz]}$PEPTIDE1,PEPTIDE1,1:R1-5:R2$$$V2.0 |  | 41% | 76%

Some peptides are written in HELM: one residue between dots, names in brackets for other building blocks, links after the first $.
